Measurements from patent US20030162221A1.
These are yes or no findings as the source states them, for the method shown. In cells and extracts the contact can be indirect. Some entries that bind do so weakly or less than the wild type. For some of these results: Tags and fused reporters may be left off the sequences shown.

Sequences of proteins named here, by UniProt entry; tags and fusion partners are left off.
UniProt Q00416: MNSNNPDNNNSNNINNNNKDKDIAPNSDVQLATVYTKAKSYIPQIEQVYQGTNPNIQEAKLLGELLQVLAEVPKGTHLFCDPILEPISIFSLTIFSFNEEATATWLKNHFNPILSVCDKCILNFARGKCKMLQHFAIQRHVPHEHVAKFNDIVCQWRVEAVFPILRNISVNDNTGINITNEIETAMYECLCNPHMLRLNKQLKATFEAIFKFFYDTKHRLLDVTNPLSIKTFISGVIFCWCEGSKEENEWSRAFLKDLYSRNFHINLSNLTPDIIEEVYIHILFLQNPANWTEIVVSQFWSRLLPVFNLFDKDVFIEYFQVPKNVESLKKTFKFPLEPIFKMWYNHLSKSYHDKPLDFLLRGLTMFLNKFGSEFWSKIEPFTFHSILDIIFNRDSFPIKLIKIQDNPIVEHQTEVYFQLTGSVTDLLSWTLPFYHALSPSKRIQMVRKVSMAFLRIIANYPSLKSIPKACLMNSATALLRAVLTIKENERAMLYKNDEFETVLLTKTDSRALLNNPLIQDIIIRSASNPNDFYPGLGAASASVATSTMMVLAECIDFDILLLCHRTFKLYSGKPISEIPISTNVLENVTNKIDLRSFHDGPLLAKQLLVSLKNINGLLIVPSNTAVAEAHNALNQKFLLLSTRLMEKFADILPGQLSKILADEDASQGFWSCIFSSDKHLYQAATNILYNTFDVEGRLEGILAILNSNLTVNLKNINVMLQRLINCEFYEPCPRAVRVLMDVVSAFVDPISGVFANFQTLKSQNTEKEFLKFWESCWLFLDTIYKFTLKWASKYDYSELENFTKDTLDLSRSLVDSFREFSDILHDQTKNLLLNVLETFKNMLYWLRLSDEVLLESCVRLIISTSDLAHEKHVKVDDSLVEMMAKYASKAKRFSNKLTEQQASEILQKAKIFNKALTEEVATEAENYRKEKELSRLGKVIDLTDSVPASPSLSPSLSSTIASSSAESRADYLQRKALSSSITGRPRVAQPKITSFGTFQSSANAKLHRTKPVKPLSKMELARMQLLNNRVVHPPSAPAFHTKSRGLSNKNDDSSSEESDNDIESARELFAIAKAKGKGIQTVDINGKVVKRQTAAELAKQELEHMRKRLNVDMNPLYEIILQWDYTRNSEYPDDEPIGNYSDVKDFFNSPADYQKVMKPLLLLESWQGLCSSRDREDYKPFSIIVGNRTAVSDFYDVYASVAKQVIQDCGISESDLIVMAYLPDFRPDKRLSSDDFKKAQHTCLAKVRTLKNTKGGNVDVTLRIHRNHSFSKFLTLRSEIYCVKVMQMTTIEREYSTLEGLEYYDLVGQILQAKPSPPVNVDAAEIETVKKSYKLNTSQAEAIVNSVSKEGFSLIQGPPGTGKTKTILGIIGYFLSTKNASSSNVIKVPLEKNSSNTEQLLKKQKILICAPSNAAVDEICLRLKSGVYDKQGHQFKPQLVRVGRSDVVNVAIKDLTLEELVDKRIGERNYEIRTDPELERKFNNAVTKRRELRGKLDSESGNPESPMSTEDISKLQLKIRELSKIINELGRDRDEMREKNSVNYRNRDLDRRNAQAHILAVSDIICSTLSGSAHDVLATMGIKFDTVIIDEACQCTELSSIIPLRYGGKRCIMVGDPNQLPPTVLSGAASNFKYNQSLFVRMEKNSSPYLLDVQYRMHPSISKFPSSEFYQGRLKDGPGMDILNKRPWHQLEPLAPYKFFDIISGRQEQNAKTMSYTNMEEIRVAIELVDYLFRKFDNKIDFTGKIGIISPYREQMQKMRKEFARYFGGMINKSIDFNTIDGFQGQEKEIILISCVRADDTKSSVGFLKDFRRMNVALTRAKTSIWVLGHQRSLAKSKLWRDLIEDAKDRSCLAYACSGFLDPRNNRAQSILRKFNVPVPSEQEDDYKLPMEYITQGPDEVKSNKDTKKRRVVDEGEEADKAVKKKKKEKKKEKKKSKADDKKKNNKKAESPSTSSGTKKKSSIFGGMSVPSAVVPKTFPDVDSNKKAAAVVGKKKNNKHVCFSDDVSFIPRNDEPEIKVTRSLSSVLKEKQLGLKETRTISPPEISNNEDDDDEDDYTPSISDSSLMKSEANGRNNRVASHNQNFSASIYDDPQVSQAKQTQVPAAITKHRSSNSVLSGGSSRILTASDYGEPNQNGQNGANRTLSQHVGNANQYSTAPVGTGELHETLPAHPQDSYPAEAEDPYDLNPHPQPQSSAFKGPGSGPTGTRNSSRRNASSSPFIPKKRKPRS
UniProt P32598: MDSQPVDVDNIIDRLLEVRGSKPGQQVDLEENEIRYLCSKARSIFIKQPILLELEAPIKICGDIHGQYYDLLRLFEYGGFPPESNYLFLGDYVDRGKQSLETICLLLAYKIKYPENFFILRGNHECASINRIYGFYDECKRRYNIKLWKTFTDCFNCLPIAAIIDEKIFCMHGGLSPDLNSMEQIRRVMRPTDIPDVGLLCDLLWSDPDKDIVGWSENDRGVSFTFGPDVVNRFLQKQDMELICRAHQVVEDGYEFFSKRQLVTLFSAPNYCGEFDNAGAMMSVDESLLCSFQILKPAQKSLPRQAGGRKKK

Columns and labels:
[1] = molecular target: T1, Glc8 (Saccharomyces cerevisiae) (UniProt P41818); test: anti-FLAG co-IP, LC-MS/MS
T1 sequence (looked up): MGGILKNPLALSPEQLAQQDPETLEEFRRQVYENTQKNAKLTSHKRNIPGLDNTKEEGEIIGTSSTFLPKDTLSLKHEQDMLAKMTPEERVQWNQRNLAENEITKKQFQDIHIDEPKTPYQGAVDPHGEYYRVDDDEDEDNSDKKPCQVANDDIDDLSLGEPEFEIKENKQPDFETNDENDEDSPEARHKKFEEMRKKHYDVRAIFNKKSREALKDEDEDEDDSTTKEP

[2] = molecular target: T2, Gph1 (Saccharomyces cerevisiae) (UniProt P06738); test: anti-FLAG co-IP, LC-MS/MS
T2 sequence (looked up): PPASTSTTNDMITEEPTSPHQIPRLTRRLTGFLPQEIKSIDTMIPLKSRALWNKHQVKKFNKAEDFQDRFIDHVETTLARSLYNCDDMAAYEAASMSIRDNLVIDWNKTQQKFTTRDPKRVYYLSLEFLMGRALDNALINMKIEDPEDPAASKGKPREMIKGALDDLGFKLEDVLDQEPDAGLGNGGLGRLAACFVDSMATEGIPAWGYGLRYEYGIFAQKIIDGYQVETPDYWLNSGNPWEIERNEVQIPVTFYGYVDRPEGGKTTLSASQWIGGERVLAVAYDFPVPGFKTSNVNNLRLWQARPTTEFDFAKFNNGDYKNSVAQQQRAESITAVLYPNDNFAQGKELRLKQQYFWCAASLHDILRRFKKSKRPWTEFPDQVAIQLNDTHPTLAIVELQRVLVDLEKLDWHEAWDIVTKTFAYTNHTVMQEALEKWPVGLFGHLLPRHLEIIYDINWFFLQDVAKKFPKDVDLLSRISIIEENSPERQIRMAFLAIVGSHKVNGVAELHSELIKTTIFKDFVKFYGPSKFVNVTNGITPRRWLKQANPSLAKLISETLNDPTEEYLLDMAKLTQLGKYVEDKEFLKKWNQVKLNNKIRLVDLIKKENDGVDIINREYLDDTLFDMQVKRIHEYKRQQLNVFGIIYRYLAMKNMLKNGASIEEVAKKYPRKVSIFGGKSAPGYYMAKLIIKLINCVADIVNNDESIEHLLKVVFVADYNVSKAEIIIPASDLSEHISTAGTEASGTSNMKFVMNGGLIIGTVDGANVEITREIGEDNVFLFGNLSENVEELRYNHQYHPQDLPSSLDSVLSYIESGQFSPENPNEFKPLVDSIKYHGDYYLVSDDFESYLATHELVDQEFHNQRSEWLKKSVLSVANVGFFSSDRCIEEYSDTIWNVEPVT

[3] = molecular target: Sen1 (Saccharomyces cerevisiae) (UniProt Q00416); test: anti-FLAG co-IP, LC-MS/MS
[4] = molecular target: T3, Cdc14 (Saccharomyces cerevisiae) (UniProt Q00684); test: anti-FLAG co-IP, LC-MS/MS; bait Cdc14 by Table 2
T3 sequence (looked up): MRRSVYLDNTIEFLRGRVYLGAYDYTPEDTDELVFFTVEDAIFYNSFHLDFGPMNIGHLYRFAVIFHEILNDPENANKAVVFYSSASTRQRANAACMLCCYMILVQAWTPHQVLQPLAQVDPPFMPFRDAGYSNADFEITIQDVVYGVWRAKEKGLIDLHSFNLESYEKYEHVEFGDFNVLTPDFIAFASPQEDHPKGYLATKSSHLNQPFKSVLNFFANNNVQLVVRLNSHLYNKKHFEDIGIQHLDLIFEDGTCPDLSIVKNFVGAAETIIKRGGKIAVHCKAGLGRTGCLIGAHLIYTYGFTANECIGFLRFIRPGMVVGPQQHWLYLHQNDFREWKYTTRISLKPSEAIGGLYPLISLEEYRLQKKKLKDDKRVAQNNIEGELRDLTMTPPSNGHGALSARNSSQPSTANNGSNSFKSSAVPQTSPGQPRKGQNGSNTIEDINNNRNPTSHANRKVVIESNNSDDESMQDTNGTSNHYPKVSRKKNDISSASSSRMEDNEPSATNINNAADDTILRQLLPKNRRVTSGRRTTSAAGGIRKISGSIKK

binding [1]: binds
binding [2]: binds
binding [3]: binds
binding [4]: binds
Substance: Glc7 (from UniProt P32598 1-312)
